# According to the supplement of paper PMC12819154, “High-throughput peptide-centric local stability assay extends protein–ligand identification to membrane proteins, tissues and bacteria” (Nature Structural & Molecular Biology, 2025):
# By UniProt entry, the sequences of proteins in these tests, tags left out. Where a name states a change or a piece, a line headed by the entry shows the natural chain unless it says otherwise.
# UniProt P00393: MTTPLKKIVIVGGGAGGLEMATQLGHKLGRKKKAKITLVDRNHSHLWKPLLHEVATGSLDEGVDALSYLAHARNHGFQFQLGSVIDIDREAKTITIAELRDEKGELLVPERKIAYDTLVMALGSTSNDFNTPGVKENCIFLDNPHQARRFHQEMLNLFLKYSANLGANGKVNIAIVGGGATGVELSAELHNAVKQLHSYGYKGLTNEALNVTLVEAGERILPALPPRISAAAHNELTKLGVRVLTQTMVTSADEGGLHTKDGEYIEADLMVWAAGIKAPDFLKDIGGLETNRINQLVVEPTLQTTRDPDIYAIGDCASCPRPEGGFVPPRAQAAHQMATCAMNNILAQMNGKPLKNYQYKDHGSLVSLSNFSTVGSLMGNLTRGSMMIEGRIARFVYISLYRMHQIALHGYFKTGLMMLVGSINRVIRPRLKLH
# UniProt P09153: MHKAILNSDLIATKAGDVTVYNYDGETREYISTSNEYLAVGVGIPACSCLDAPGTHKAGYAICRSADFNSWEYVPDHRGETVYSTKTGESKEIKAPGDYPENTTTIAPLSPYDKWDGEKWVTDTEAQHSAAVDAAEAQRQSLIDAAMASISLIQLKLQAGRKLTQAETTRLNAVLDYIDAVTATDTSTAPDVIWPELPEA
# UniProt P07658, whole entry: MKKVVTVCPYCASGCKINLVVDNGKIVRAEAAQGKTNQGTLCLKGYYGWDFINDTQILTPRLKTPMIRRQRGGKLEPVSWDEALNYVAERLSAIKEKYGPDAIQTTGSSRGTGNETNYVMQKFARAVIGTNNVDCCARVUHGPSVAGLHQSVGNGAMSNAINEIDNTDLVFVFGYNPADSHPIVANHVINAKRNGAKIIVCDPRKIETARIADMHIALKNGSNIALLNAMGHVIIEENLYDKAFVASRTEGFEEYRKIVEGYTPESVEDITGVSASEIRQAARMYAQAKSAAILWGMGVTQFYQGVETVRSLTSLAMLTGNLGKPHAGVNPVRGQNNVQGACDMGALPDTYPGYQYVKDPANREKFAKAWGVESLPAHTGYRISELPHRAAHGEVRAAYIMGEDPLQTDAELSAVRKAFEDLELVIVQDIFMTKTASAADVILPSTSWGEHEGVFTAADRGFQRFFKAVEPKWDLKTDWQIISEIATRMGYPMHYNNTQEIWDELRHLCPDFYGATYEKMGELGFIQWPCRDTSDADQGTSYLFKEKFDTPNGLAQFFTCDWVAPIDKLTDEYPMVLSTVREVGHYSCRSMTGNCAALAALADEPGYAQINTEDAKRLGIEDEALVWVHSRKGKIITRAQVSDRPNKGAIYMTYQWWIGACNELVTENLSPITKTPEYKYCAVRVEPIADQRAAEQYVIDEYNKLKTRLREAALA
# UniProt P07822: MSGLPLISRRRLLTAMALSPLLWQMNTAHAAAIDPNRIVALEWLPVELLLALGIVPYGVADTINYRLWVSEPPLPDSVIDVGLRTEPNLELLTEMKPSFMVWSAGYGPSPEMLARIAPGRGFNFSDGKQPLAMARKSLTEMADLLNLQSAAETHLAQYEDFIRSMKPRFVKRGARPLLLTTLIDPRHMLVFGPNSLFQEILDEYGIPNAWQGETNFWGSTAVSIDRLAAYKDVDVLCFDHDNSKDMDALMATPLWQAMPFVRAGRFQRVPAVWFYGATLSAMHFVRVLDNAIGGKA
# UniProt P03813: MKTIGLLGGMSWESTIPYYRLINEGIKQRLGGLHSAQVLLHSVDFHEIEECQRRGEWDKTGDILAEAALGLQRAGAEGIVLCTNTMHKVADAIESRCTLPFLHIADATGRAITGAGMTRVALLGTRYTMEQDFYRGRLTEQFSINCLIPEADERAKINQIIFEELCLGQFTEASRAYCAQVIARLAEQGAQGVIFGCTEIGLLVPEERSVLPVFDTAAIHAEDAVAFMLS
# UniProt P00363: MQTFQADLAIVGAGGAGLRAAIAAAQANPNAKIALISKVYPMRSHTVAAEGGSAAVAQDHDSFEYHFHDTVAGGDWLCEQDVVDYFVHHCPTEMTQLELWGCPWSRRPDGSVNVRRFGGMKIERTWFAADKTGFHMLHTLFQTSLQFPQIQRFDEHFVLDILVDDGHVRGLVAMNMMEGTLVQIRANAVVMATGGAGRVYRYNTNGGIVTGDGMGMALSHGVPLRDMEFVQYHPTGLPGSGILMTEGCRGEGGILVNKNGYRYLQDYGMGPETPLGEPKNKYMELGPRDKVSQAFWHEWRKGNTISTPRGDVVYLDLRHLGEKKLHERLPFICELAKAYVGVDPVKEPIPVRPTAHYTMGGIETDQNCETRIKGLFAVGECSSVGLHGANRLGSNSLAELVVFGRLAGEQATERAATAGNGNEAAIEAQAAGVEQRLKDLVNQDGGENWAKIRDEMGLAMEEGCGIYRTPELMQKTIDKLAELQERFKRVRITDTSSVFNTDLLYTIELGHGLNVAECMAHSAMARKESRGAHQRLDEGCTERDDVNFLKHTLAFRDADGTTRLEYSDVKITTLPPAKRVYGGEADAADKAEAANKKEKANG
# UniProt P06129: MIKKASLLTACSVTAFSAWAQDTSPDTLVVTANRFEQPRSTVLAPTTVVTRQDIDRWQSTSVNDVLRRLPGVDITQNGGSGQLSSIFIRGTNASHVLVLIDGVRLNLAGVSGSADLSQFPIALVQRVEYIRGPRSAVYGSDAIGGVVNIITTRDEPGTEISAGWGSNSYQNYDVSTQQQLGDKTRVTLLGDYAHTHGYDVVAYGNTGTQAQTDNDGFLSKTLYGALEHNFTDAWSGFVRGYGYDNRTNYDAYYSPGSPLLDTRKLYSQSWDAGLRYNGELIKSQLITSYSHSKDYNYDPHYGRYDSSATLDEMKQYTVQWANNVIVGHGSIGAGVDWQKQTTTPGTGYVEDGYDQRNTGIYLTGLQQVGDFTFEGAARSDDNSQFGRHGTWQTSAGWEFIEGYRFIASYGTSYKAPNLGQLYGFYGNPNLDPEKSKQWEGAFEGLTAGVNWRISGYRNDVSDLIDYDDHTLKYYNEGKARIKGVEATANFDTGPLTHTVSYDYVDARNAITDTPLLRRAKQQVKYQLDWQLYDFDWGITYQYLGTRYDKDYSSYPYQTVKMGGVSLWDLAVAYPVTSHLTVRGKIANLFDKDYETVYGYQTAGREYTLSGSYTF
# UniProt P05706: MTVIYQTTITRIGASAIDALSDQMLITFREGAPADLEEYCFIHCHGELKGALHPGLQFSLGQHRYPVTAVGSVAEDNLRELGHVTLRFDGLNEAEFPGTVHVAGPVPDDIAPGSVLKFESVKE
# UniProt P08373: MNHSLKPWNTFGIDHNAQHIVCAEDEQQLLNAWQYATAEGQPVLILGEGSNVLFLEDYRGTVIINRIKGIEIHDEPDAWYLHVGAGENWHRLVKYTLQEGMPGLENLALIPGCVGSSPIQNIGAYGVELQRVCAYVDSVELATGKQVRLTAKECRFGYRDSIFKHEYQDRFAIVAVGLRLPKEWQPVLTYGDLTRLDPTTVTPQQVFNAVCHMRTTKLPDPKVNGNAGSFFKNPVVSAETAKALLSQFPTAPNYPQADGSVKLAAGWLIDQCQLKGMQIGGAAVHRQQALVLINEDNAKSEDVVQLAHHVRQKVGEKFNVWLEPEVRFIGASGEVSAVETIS
# UniProt P07003: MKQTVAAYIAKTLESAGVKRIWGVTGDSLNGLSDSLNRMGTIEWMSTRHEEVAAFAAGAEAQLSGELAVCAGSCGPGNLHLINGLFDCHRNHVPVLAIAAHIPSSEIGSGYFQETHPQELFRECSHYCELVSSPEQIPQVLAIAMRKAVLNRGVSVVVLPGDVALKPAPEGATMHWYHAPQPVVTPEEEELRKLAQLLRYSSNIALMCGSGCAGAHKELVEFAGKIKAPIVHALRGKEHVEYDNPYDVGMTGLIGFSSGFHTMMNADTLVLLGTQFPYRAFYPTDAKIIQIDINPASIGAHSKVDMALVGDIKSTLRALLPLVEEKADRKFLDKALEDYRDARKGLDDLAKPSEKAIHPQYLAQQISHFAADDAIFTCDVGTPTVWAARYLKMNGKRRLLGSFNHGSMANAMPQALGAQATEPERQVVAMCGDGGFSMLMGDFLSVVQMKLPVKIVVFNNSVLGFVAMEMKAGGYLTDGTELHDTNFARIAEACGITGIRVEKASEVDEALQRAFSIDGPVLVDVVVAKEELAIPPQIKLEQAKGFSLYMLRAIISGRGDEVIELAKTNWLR
# UniProt P07118: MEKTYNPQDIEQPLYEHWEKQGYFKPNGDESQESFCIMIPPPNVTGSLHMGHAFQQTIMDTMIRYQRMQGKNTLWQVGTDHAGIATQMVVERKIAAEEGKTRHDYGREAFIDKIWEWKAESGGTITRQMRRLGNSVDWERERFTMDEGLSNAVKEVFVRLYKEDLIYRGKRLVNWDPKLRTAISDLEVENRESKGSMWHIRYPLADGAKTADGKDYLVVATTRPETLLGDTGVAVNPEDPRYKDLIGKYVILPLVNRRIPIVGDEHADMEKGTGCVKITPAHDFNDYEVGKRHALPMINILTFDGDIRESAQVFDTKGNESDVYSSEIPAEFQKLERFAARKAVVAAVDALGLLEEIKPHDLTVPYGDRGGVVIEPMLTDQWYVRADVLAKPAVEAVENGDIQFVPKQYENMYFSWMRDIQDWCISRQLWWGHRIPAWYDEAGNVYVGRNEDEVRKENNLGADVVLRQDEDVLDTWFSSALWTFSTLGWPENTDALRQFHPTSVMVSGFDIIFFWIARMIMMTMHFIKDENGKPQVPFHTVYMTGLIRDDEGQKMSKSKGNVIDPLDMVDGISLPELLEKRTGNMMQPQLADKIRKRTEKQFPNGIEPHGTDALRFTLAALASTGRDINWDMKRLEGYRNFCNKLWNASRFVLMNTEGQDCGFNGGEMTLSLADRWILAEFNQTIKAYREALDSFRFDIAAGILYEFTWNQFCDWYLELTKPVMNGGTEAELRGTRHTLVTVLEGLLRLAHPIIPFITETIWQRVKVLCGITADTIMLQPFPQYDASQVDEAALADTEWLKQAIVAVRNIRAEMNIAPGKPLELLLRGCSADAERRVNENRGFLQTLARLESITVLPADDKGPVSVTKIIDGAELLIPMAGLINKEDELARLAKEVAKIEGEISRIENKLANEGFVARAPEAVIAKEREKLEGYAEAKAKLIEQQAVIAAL
# UniProt P09980: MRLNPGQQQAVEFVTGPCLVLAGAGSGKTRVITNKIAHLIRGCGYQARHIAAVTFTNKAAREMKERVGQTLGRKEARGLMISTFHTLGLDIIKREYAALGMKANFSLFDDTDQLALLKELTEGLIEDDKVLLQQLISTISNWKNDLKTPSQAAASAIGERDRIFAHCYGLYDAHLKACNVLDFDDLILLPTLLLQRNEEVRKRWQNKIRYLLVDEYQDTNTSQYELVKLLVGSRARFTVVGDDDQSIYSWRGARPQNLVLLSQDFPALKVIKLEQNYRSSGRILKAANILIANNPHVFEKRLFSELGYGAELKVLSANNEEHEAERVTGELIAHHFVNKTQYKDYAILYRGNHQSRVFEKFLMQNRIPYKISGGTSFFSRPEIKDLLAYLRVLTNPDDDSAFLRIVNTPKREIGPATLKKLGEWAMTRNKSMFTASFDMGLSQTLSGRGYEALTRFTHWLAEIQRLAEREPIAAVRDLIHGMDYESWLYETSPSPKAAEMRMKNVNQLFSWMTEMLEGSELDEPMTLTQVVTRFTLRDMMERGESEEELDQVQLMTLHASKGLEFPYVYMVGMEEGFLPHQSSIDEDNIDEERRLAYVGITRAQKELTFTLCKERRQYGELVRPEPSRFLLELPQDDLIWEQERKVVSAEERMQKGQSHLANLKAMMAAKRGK
# UniProt P06134: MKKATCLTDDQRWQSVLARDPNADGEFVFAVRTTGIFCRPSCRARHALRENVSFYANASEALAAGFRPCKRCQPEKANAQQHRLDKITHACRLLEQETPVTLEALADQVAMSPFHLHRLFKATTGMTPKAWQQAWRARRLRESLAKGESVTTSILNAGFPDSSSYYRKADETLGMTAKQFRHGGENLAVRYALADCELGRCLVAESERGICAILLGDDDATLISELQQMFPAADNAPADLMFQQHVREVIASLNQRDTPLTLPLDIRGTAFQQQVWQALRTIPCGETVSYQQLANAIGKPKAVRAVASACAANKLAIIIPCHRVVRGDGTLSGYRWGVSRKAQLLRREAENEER
# UniProt P08369: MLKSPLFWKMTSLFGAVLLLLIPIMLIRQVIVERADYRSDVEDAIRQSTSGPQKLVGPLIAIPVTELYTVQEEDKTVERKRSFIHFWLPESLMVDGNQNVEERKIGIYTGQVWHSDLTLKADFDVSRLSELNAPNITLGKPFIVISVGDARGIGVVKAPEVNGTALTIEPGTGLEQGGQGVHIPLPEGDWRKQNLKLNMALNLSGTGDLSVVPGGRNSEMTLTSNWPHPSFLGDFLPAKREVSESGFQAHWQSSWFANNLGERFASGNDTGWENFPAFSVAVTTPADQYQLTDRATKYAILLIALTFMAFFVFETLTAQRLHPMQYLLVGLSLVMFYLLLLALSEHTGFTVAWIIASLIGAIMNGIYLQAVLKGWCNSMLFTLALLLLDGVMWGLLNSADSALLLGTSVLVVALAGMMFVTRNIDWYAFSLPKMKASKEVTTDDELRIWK
# Some of the results follow. Small differences around the control level are noise.
# Compound: CC1(C)S[C@@H]2[C@H](NC(=O)[C@H](N)c3ccccc3)C(=O)N2[C@H]1C(=O)O [ampicillin]
# Assay: log2 fold change of tryptic peptide abundance, ligand vs vehicle (limited proteolysis) (log2 ratio); higher = more trypsin-susceptible (destabilized)
# Conditions: ligand concentration: 10 uM; sample: E. coli crude lysate
row,Target,log2 fold change
1,"UniProt P04825 (peptide sequence: DQEFSSDLGSR, peptide start residue: 327)",-0.12
2,"UniProt P05042 (peptide sequence: ASELLGGVR, peptide start residue: 114)",-0.202
3,"UniProt P00968 (peptide sequence: STGEVMGVGRTFAEAFAK, peptide start residue: 913)",-0.381
4,"UniProt P07821 (peptide sequence: YCDYLVALR, peptide start residue: 214)",-0.198
5,"UniProt P06612 (peptide sequence: QLAEKADHIYLATDLDR, peptide start residue: 98)",1.08
6,"UniProt P00393 (peptide sequence: TITIAELR, peptide start residue: 93)",-0.349
7,"UniProt P09153 (peptide sequence: AILNSDLIATK, peptide start residue: 4)",0.326
8,"UniProt P02921 (peptide sequence: KVPPEPVHADIPVGAVSDVKA, peptide start residue: 453)",0.29
9,"UniProt P02942 (peptide sequence: QASHLALSASETAQR, peptide start residue: 325)",0.28
10,"UniProt P07024 (peptide sequence: DSIEAGDISYK, peptide start residue: 411)",0.629
11,"UniProt P03023 (peptide sequence: ALADSLMQLAR, peptide start residue: 341)",-0.532
12,"UniProt P04425 (peptide sequence: GEPRPLTESDWK, peptide start residue: 242)",-0.207
13,"UniProt P00805 (peptide sequence: KHTSDTPFDVSKLNELPK, peptide start residue: 218)",-0.184
14,"UniProt P07658 (peptide sequence: TNQGTLCLK, peptide start residue: 36)",0.265
15,"UniProt P06968 (peptide sequence: GEGGFGHSGRQ, peptide start residue: 142)",0.0775
16,"UniProt P00582 (peptide sequence: QLQTILFEK, peptide start residue: 585)",0.431
17,"UniProt P07822 (peptide sequence: GFNFSDGKQPLAMAR, peptide start residue: 121)",-0.314
18,"UniProt P08179 (peptide sequence: LKMHENAAWLDGQR, peptide start residue: 189)",0.205

row,Target,log2 fold change
1,"UniProt P03813 (peptide sequence: YTMEQDFYR, peptide start residue: 127)",-0.243
2,"UniProt P08331 (peptide sequence: VTVNDITETVR, peptide start residue: 196)",0.183
3,"UniProt P00363 (peptide sequence: NKYMELGPR, peptide start residue: 280)",-0.231
4,"UniProt P06129 (peptide sequence: WQSTSVNDVLR, peptide start residue: 57)",0.206
5,"UniProt P05706 (peptide sequence: ELGHVTLR, peptide start residue: 80)",0.0582
6,"UniProt P08373 (peptide sequence: DSIFKHEYQDR, peptide start residue: 160)",-0.513
7,"UniProt P05719 (peptide sequence: EQAINYLK, peptide start residue: 30)",-0.604
8,"UniProt P09029 (peptide sequence: DVFPIIADR, peptide start residue: 72)",0.279
9,"UniProt P07003 (peptide sequence: GFSLYMLR, peptide start residue: 545)",-0.292
10,"UniProt P07118 (peptide sequence: RTGNMMQPQLADK, peptide start residue: 581)",-0.609
11,"UniProt P04995 (peptide sequence: IHSLFTVPK, peptide start residue: 88)",-0.295
12,"UniProt P00509 (peptide sequence: DFSFIIK, peptide start residue: 337)",-0.489
13,"UniProt P09980 (peptide sequence: RLAYVGITR, peptide start residue: 594)",-0.527
14,"UniProt P06134 (peptide sequence: CLVAESER, peptide start residue: 201)",-0.307
15,"UniProt P08369 (peptide sequence: EVTTDDELR, peptide start residue: 439)",-0.336
16,"UniProt P07363 (peptide sequence: GVGMDVVKR, peptide start residue: 472)",0.216
17,"UniProt P07014 (peptide sequence: IKPYLLNNGQNPPAR, peptide start residue: 117)",-0.086

# Part of the list above, bar-delimited.
row | Target | log2 fold change
4 | UniProt P07821 (peptide sequence: YCDYLVALR, peptide start residue: 214) | -0.198
5 | UniProt P06612 (peptide sequence: QLAEKADHIYLATDLDR, peptide start residue: 98) | 1.08
